# Screening data, single-dose tests

Chains of the proteins cited; added tags and fusions are not shown. Residues count along the entry.
UniProt A4I591, 1-473: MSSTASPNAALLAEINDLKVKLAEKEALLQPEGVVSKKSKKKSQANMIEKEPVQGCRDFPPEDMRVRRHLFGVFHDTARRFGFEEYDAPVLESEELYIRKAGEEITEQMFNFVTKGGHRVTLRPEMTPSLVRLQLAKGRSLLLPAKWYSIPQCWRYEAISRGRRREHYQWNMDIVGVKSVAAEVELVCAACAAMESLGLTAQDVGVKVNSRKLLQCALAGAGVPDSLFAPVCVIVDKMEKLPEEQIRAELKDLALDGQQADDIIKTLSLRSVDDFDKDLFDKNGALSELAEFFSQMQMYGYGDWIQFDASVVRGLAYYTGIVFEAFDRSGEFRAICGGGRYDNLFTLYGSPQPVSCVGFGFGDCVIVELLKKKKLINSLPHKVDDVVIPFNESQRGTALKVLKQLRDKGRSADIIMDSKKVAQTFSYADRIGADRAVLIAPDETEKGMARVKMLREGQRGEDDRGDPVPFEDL
UniProt Q8IDJ8, 1-583: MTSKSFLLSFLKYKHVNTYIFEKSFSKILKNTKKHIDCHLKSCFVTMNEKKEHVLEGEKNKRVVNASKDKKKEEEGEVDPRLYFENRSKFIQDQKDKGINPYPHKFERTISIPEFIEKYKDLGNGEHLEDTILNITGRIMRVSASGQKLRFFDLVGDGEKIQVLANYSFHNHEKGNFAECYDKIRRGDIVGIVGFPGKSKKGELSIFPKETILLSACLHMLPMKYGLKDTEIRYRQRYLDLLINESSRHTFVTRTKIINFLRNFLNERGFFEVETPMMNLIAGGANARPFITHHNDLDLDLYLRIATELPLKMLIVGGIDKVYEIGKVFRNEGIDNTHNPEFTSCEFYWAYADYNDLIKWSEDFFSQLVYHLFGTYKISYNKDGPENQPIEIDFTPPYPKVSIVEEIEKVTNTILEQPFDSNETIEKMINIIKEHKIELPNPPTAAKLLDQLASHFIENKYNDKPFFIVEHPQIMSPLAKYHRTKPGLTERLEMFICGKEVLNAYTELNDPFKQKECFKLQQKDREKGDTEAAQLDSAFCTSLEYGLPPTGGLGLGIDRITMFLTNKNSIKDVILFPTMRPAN
UniProt Q4DA54, 1-478: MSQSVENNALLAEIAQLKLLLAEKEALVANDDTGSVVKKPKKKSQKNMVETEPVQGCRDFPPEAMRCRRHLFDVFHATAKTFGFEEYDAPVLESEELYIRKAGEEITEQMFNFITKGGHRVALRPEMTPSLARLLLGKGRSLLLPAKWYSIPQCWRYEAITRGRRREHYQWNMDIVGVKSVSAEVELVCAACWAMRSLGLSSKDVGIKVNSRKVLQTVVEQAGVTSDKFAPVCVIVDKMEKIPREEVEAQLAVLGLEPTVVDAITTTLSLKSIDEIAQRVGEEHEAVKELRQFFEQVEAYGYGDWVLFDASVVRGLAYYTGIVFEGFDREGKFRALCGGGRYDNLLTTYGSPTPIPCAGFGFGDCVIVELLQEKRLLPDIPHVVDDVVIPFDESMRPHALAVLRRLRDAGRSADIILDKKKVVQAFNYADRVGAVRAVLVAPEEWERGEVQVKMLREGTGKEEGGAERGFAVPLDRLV

LiHisRS: 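Enzyme assay of histidyl-tRNA synthetase; the read-out is not stated. Target: Histidine-tRNA ligase, Leishmania infantum (UniProt A4I591). Tested at 30 µM. Direction is inferred from retests: higher values go with stronger inhibition. The assay is labelled LdHisRS but filed under L. infantum. Size under these conditions: about 69,000 compounds, about 410 of them at 50% or above in at least one test.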
PfKRS1: 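Lysine-tRNA ligase, Plasmodium falciparum 3D7 (UniProt Q8IDJ8). Enzyme assay of the cytosolic lysyl-tRNA synthetase in 384-well plates, read by luminescence. Tested at 30 µM. Higher reads as stronger inhibition, judged from the few compounds that gave an IC50. Of about 69,000 compounds tested this way, about 49 (0.071%) reached 50% or more in at least one test.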
TcHisRS: 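Enzyme assay of histidyl-tRNA synthetase; the read-out is not stated. Target: Histidine-tRNA ligase, Trypanosoma cruzi CL Brener (UniProt Q4DA54). Tested at 30 µM. Higher reads as stronger inhibition (inferred: compounds with an IC50 in retests scored well above the rest). Size under these conditions: about 69,000 compounds, about 31 of them at 50% or above in at least one test.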

The filed quantity is “Percent Effect” (%). The controls that fix the scale are not given in the record; negative values are as filed. The compounds are a random part of those screened.

{"compound": "CCSc1cncc(N2CCC(C(=O)NC(C)C(C)C)CC2)n1", "stereo": "centres undefined", "LiHisRS": 18.92, "PfKRS1": 4.991, "TcHisRS": 6.667}
{"compound": "O=C(c1csnn1)N1CCCC(n2cncn2)C1", "stereo": "centres undefined", "LiHisRS": 0, "PfKRS1": -0.3306, "TcHisRS": 0.2865}
{"compound": "CC(NC(=O)Nc1ccncc1)c1ccc2c(c1)CC(=O)N2", "stereo": "centres undefined", "LiHisRS": 18.75, "PfKRS1": 2.108, "TcHisRS": 7.447}
{"compound": "O=C1COC2(CCN(Cc3cccs3)CC2)CN1c1ccsc1", "LiHisRS": 22.34, "PfKRS1": 3.385, "TcHisRS": 0}
{"compound": "NC(=O)C1CCN(C(=O)c2cccn2Cc2cccs2)C1", "stereo": "centres undefined", "LiHisRS": 13.46, "PfKRS1": 1.95, "TcHisRS": 8}
{"compound": "CCC[C@H]1CN(C2CCOCC2)C[C@@H]1NC(=O)CCCn1ccnc1", "LiHisRS": -3.947, "PfKRS1": -2.11, "TcHisRS": 3.448}
{"compound": "CN1CCCN(C(=O)c2cc3c(s2)CCN3C(=O)c2ccccc2)CC1", "LiHisRS": 18.42, "PfKRS1": 0.867, "TcHisRS": 2.299}
{"compound": "Cc1csc(N2CCC(CCN3CCCC3=O)CC2)n1", "LiHisRS": 30.12, "PfKRS1": -1.609, "TcHisRS": 7.463}
{"compound": "CC(C)[C@H](NC(=O)N1CCC(Cc2ccccc2)CC1)C(=O)O", "LiHisRS": -2.5, "PfKRS1": -1.487, "TcHisRS": 3.727}
{"compound": "CC(=O)NC1CCN(C(=O)Nc2ccc(SC(F)F)cc2)CC1", "LiHisRS": 12.5, "PfKRS1": 4.3, "TcHisRS": 6.329}
{"compound": "COCCCC1(C(=O)O)CCCN(Cc2ccccc2C)C1", "stereo": "centres undefined", "LiHisRS": 1.408, "PfKRS1": 1.221, "TcHisRS": 2.762}
{"compound": "CCn1cc(CN2CCN(CC(O)c3ccc(C)cc3C)CC2)cn1", "stereo": "centres undefined", "LiHisRS": 10.34, "PfKRS1": 0.3191, "TcHisRS": 4.563}
{"compound": "CCC(C)Oc1cc(C(=O)Nc2nccs2)ccn1", "stereo": "centres undefined", "LiHisRS": 12.9, "PfKRS1": 2.793, "TcHisRS": 6.897}
{"compound": "CS(=O)(=O)c1ccc(CNc2nccc(C(F)(F)F)n2)cc1", "LiHisRS": 13.16, "PfKRS1": 1.292, "TcHisRS": 2.035}
{"compound": "CC(=O)NCC1CCN(CC2CCOc3ccccc3C2)CC1", "stereo": "centres undefined", "LiHisRS": 14.42, "PfKRS1": 5.617, "TcHisRS": 1.626}
{"compound": "CCc1cc(OC)c(OC)cc1C(=O)Nc1cccnc1", "LiHisRS": -7.08, "PfKRS1": -2.185, "TcHisRS": 0.8772}
{"compound": "Cc1nc(O)ccc1C(=O)N1CCCC1c1nc(-c2ccccc2)n[nH]1", "stereo": "centres undefined", "LiHisRS": 21.51, "PfKRS1": 3.709, "TcHisRS": 2.469}
{"compound": "CCN1CC(C(=O)N2CCc3cc(C(N)=O)n(C)c3C2)CC1=O", "stereo": "centres undefined", "LiHisRS": 17.95, "PfKRS1": -2.713, "TcHisRS": -3.448}
{"compound": "CCOc1ncccc1NC(=O)C1CCS(=O)(=O)C1", "stereo": "centres undefined", "LiHisRS": 14.29, "PfKRS1": 1.111, "TcHisRS": 8.069}
{"compound": "CC(C)CCC(=O)NCC(=O)N1CCCCCC1c1ccco1", "stereo": "centres undefined", "LiHisRS": 9.677, "PfKRS1": 6.92, "TcHisRS": 1.786}
{"compound": "COCCNC(=O)Cn1c(-c2cccc(F)c2)nc(C)c(CCO)c1=O", "LiHisRS": 17.39, "PfKRS1": -0.5957, "TcHisRS": 12}
{"compound": "CNC(=O)COc1ccc(CNc2cncc(-n3cccn3)n2)cc1", "LiHisRS": 19.23, "PfKRS1": 0.8575, "TcHisRS": 6.857}
{"compound": "CCN1CCC(CC(=O)N2CCc3sc(C(=O)N(C)C)cc3C2)CC1", "LiHisRS": 3.2, "PfKRS1": -4.418, "TcHisRS": 0}
{"compound": "COc1cc2c(cc1OC)CN(C(=O)NC(C)c1nncn1C)CC2", "stereo": "centres undefined", "LiHisRS": 15.38, "PfKRS1": -0.2555, "TcHisRS": 11.45}
{"compound": "CC(=O)c1c(C)nn(S(=O)(=O)c2ccc(C)cc2)c1C", "LiHisRS": 17.86, "PfKRS1": 6.817, "TcHisRS": 5.263}
{"compound": "Cn1c(CN2CCCC2c2noc(C3CC3)n2)cc(=O)n(C)c1=O", "stereo": "centres undefined", "LiHisRS": 6.757, "PfKRS1": -5.73, "TcHisRS": 1.887}
{"compound": "CCOc1ccnc(NCc2nc(C)cc(C(F)(F)F)n2)n1", "LiHisRS": 10.96, "PfKRS1": -2.295, "TcHisRS": 1.093}
{"compound": "O=C(O)c1cc(/C=C/c2cccc3ccccc23)ncn1", "LiHisRS": -6.25, "PfKRS1": 7.274, "TcHisRS": -18.33}
{"compound": "CN(Cc1cncnc1)[C@H]1CN(C(=O)c2ccc[nH]2)[C@@H]2CCCO[C@@H]21", "LiHisRS": 15.45, "PfKRS1": 1.783, "TcHisRS": 8.466}
{"compound": "CCCn1ncc(CN(Cc2ccsc2)Cc2ccco2)c1C", "LiHisRS": 6.25, "PfKRS1": -2.566, "TcHisRS": 7.595}
{"compound": "O=C(c1cn(-c2ccccc2Cl)nn1)N1CCSCC1", "LiHisRS": 11.03, "PfKRS1": -1.05, "TcHisRS": -1.775}
{"compound": "COCCCn1ccc(NC(=O)NCCCn2ccnc2)n1", "LiHisRS": 2.857, "PfKRS1": -5.502, "TcHisRS": 1.031}
{"compound": "Cc1ccc(-c2nc(C3CCN(C(=O)c4ccnn4C)CC3)no2)cn1", "LiHisRS": 8.054, "PfKRS1": 1.912, "TcHisRS": 3.143}
{"compound": "CC(C)C(NC(=O)NCCNc1cnccn1)c1cccs1", "stereo": "centres undefined", "LiHisRS": 10.43, "PfKRS1": 1.206, "TcHisRS": 5.172}
{"compound": "Cc1cc(CCC(=O)NCc2ncc[nH]2)ccc1Br", "LiHisRS": 18.37, "PfKRS1": 1.578, "TcHisRS": 7}
{"compound": "COCCc1noc(CN2CCCC2c2noc(C3CC3)n2)n1", "stereo": "centres undefined", "LiHisRS": 17.65, "PfKRS1": 5.314, "TcHisRS": 4.036}

Repeated from the top, 5 entries:

Compound	LiHisRS	PfKRS1	TcHisRS
CCSc1cncc(N2CCC(C(=O)NC(C)C(C)C)CC2)n1 (centres undefined)	18.92%	4.991%	6.667%
O=C(c1csnn1)N1CCCC(n2cncn2)C1 (centres undefined)	0%	-0.3306%	0.2865%
CC(NC(=O)Nc1ccncc1)c1ccc2c(c1)CC(=O)N2 (centres undefined)	18.75%	2.108%	7.447%
O=C1COC2(CCN(Cc3cccs3)CC2)CN1c1ccsc1	22.34%	3.385%	0%
NC(=O)C1CCN(C(=O)c2cccn2Cc2cccs2)C1 (centres undefined)	13.46%	1.95%	8%

The values are deposited in ChEMBL (CHEMBL3988442, “University of Dundee, Small-Polar-MMV Screening Library” (2021)).